Laboratory results reported in patent US9850283B2 (BRISTOL-MYERS SQUIBB COMPANY, priority 2013, dated 2017).

Assay: general procedure: Fmoc solid-phase peptide synthesis; Fmoc-PEG12-Sieber amide resin; HATU/N-methyl morpholine (HCTU/DIEA on Liberty)
Settings: whole synthesis, LCMS analysis, scale 0.05 mmol

Substance | final HPLC purity [%]
C1Ac F mAla N P H H S W R W mNle mNle L C G PEG12-NH2 | 98

Same assay, conditions: whole synthesis, scale 0.05 mmol

Substance | isolated mass [mg]
C1Ac F mAla N P H H S W R W mNle mNle L C G PEG12-NH2 | 6.2

Assay: general procedure: Fmoc solid-phase peptide synthesis; Sieber Amide resin (0.71 mmol/g); HATU/N-methyl morpholine (HCTU/DIEA on Liberty)
Settings: cyclisation step, LCMS analysis

Substance | final HPLC purity [%]
ClAc F L I V I R D R V F R C G NH2 | 99

Same assay, conditions: whole synthesis, LCMS analysis, scale of the general procedure 0.100 mmol

Substance | final LC-MS purity [%] | final HPLC purity [%]
ClAc-F-^mPhe-^mNle-Gly-D-V-^mPhe-Y-Sar-W-Y-L-C-G-NH2 | 97.7 | 
ClAc F L L V I R D R V F R C G NH2 |  | 99
ClAc-F-^mPhe-^mNle-^mAla-D-V-^mPhe-Y-Sar-W-Y-L-C-G-NH2 | 100 | 
ClAc F ^mAla N P H L Sar W S W ^mNle ^mNle R C NH2 | 100 | 
ClAc F ^mAla N P H L Sar W S W ^mAla ^mNle R C G NH2 | 97 | 
PEPTIDE1{[CH2CO].F.[mPhe].[mNle].[Sar].D.V.[mAla].Y.[Sar].W.Y.L.C.G.[am]}$PEPTIDE1,PEPTIDE1,1:R3-14:R3$$$V2.0 | 100 | 
ClAc-F-^mPhe-^mNle-Sar-D-V-^mPhe-Y-Sar-W-Y-A-C-G-NH2 |  | 97
ClAc F D-Phe I V I R D R V F R C G NH2 |  | 98
ClAc F L I Y I R D R V F R C G NH2 |  | 91
ClAc F ^mAla N P H L Sar W S W ^mNle ^mNle A C G NH2 |  | 99
ClAc-A-^mPhe-^mNle-Sar-D-V-^mPhe-Y-Sar-W-Y-L-C-G-NH2 |  | 98
PEPTIDE1{[CH2CO].F.[mPhe].[mNle].[Sar].D.V.[mPhe].A.[Sar].W.Y.L.C.G.[am]}$PEPTIDE1,PEPTIDE1,1:R3-14:R3$$$V2.0 | 100 | 
ClAc F ^mAla N P H L Sar A S W ^mNle ^mNle R C G NH2 |  | 93
ClAc F L I V I R D R F F R C G NH2 |  | 95
ClAc F ^mAla N P H H S W R W ^mNle ^mNle L C G NH2 |  | 93
ClAc F L I V I R D R L F R C G NH2 |  | 95
ClAc F L I V I L D R V F R C G NH2 |  | 98
ClAc F L I F I R D R V F R C G NH2 |  | 95
ClAc-F-^mPhe-^mNle-Sar-D-V-^mPhe-Y-Gly-W-Y-L-C-G-NH2 |  | 98
ClAc A ^mAla N P H L Sar W S W ^mNle ^mNle R C G NH2 | 98 | 
ClAc-F-^mPhe-^mNle-Sar-D-V-^mPhe-Y-Sar-W-Y-L-C-G-NH2 | 97.9 | 
ClAc F ^mAla N A H L Sar W S W ^mNle ^mNle R C G NH2 |  | 93
ClAc F ^mAla A P H L Sar W S W ^mNle ^mNle R C G NH2 |  | 92
ClAc F L I V I R D R V F Y C G NH2 |  | 98
ClAc F A N P H L Sar W S W ^mNle ^mNle R C G NH2 |  | 99
ClAc F ^mAla N P H L Sar W S W Nle ^mNle R C G NH2 |  | 95
ClAc F ^mAla N P H L Sar W S W ^mNle ^mNle R ^DCys G NH2 | 98 | 
ClAc F ^mAla N P H L Sar W A W ^mNle ^mNle R C G NH2 |  | 99

Substance | final LC-MS purity [%] | final HPLC purity [%]
ClAc F ^mAla N P H L D-^mAla W S W ^mNle ^mNle R C G NH2 | 98 | 
ClAc-F-^mPhe-^mNle-Sar-D-A-^mPhe-Y-Sar-W-Y-L-C-G-NH2 | 95.7 | 
C1Ac F mAla N P H L Sar W S W mNle mNle R C G PEG12-NH2 |  | 96
ClAc F ^mAla N P H A Sar W S W ^mNle ^mNle R C G NH2 |  | 99
ClAc-F-^mPhe-^mNle-Sar-D-V-^mPhe-Y-^mAla-W-Y-L-C-G-NH2 |  | 91
ClAc F ^mAla N P L R S W R W ^mNle ^mNle L C G NH2 |  | 99
ClAc Trp ^mAla N P H L Sar W S W ^mNle ^mNle R C G NH2 | 100 | 
ClAc F ^mAla N P H L Sar W S A ^mNle ^mNle R C G NH2 |  | 93
ClAc 2-Nal ^mAla N P H L Sar W S W ^mNle ^mNle R C G NH2 | 100 | 
ClAc-F-^mAla-^mNle-Sar-D-V-^mPhe-Y-Sar-W-Y-L-C-G-NH2 | 100.0 | 
PEPTIDE1{[CH2CO].F.L.I.V.I.R.D.R.V.F.P.C.G.[am]}$PEPTIDE1,PEPTIDE1,1:R3-13:R3$$$V2.0 |  | 94
ClAc-F-^mPhe-^mNle-Sar-D-V-^mPhe-Y-Sar-W-A-L-C-G-NH2 | 96 | 
ClAc F Sar N P H L Sar W S W ^mNle ^mNle R C G NH2 |  | 97
ClAc F L F V I R D R V F R C G NH2 |  | 96
ClAc F F L V I R D R V F R C G NH2 |  | 99
PEPTIDE1{[CH2CO].F.[mVal].N.P.H.L.[Sar].W.S.W.[mNle].[mNle].R.C.G.[am]}$PEPTIDE1,PEPTIDE1,1:R3-15:R3$$$V2.0 | 100 | 
ClAc F ^mAla N P H L G W S W ^mNle ^mNle R C G NH2 |  | 92
ClAc F ^mAla N P H R S W R W ^mNle ^mNle L C G NH2 |  | 98
ClAc F ^mAla N P H L Sar W S W ^mNle ^mNle R C G NH2 |  | 97
ClAc-F-^mPhe-^mNle-Sar-A-V-^mPhe-Y-Sar-W-Y-L-C-G-NH2 | 97 | 
ClAc-F-Phe-^mNle-Sar-D-V-^mPhe-Y-Sar-W-Y-L-C-G-NH2 | 99 | 
ClAc-F-^mPhe-^mNle-Sar-D-V-Phe-Y-Sar-W-Y-L-C-G-NH2 |  | 90
ClAc F F I V I R D R V F R C G NH2 |  | 95
ClAc F ^mAla N P A L Sar W S W ^mNle ^mNle R C G NH2 |  | 99
ClAc F ^mAla N P H L Sar W S W ^mNle Nle R C G NH2 |  | 91
ClAc F ^mAla N P H L Sar W S W ^mNle ^mAla R C G NH2 |  | 99
ClAc F L I V I H D R V F R C G NH2 |  | 98

Same assay, conditions: whole synthesis, LCMS analysis, scale of the general procedure 0.100 mmol; run 1

Substance | final HPLC purity [%] | final LC-MS purity [%]
ClAc F L I V V R D R V F R C G NH2 | 98 | 
PEPTIDE1{[CH2CO].F.[mAla].N.P.H.L.[Dab].W.S.W.[mNle].[mNle].R.C.G.[am]}$PEPTIDE1,PEPTIDE1,1:R3-15:R3$$$V2.0 |  | 100

Same assay, conditions: whole synthesis, LCMS analysis, scale of the general procedure 0.100 mmol; run 2

Substance | final HPLC purity [%] | final LC-MS purity [%]
ClAc F L I V V R D R V F R C G NH2 | 96 | 
PEPTIDE1{[CH2CO].F.[mAla].N.P.H.L.[Dab].W.S.W.[mNle].[mNle].R.C.G.[am]}$PEPTIDE1,PEPTIDE1,1:R3-15:R3$$$V2.0 |  | 97.5

Same assay, conditions: whole synthesis, LCMS conditions B and D, scale of the general procedure 0.100 mmol

Substance | final LC-MS purity [%]
PEPTIDE1{[CH2CO].F.[mAla].N.P.H.D.[Sar].W.S.W.[mNle].[mNle].R.C.G.[am]}$PEPTIDE1,PEPTIDE1,1:R3-15:R3$$$V2.0 | 97

For part of these data: Strings that start with PEPTIDE1 are HELM notation: dots part the residues, brackets hold end groups and non-standard residues.
